Each number is a percent effect as filed.
The controls that fix the scale are not given in the record; negative values are as filed.
Compounds were drawn at random from those tested, without regard to their results.
Two or more numbers in one place are separate tests of the same structure; such repeats can differ widely.
A dash means the value is not listed here; it may have been measured.

Sequences of proteins named here, by UniProt entry; tags and fusion partners are left off. Residues count along the entry.
UniProt P9WNZ1, whole entry: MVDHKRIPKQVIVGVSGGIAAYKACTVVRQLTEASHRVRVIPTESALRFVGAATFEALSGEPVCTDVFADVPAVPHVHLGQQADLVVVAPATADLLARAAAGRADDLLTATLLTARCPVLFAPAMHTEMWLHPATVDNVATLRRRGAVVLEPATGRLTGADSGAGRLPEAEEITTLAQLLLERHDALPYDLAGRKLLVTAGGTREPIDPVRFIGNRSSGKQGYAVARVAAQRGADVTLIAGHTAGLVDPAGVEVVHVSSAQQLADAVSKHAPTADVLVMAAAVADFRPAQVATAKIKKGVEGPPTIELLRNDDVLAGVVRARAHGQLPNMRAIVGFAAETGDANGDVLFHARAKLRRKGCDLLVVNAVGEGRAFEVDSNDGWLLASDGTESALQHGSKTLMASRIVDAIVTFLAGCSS
UniProt P9WFT3, whole entry: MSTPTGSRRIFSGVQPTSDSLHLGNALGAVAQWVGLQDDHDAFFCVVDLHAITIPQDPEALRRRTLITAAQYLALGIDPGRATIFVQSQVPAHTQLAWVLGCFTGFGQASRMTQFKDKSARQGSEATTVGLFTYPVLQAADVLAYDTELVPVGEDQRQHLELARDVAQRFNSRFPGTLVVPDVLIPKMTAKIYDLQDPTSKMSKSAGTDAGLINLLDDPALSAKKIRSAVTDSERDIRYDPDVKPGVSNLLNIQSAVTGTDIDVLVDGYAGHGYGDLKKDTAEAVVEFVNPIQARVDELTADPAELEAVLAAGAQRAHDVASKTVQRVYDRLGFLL
UniProt A4I591, 1-473: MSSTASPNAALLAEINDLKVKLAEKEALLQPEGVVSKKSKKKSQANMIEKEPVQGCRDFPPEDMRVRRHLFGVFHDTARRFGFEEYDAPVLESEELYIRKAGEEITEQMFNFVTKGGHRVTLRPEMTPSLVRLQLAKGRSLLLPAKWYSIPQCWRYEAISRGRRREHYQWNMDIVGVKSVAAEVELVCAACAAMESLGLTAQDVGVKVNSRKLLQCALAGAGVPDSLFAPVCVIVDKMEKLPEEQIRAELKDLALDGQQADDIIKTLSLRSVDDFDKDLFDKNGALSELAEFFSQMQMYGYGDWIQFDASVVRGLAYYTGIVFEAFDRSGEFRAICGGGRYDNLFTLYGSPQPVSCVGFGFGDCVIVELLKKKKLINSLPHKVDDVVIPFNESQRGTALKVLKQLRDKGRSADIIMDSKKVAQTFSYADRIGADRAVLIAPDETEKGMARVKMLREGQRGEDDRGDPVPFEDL

CoaBC: 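Coenzyme A biosynthesis protein CoaBC, Mycobacterium tuberculosis (UniProt P9WNZ1). Enzyme assay of CoaBC with a phosphate dye (Biomol Green) read at 650 nm. Tested at 30 µM. Higher reads as stronger inhibition, judged from the few compounds that gave an IC50. Most strong results did not repeat in a second test. About 67,000 compounds were tested under these conditions; 0.06% (about 40) showed 50% or more at least once.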
Toxoplasma: 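Assay of Toxoplasma gondii numbers, read through their beta-galactosidase reporter with a colour substrate. Concentration: 10 µM. The record gives no direction; the compounds picked for IC50 retests had high values, so higher reads as fewer parasites. Of about 67,000 compounds tested this way, about 260 (0.38%) reached 50% or more in at least one test.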
Leishmania in macrophages: 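Cell assay of Leishmania donovani living inside macrophages; the read-out is not stated. Compounds at 30 µM. The record gives no direction; compounds that gave an IC50 in retests scored well above the rest, so higher reads as stronger inhibition. Size under these conditions: about 69,000 compounds, about 1,000 of them at 50% or above in at least one test.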
MtTrpRS: 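Tryptophan-tRNA ligase, Mycobacterium tuberculosis (UniProt P9WFT3). Enzyme assay of tryptophanyl-tRNA synthetase; the read-out is not stated. Tested at 10 µM. Higher most likely means stronger inhibition; the record gives no direction and few retests gave an IC50. Size under these conditions: about 65,000 compounds, about 64 of them at 50% or above in at least one test.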
LiHisRS: 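Enzyme assay of histidyl-tRNA synthetase; the read-out is not stated. Target: Histidine-tRNA ligase, Leishmania infantum (UniProt A4I591). Concentration: 30 µM. Higher reads as stronger inhibition (inferred: compounds with an IC50 in retests scored well above the rest). The assay is labelled LdHisRS but filed under L. infantum. Size under these conditions: about 69,000 compounds, about 410 of them at 50% or above in at least one test.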

| # | structure | CoaBC | Toxoplasma | Leishmania in macrophages | MtTrpRS | LiHisRS |
|---|---|---|---|---|---|---|
| 1 | `Nc1ncc(C(=O)N2CCN(c3nccs3)CC2)cc1Cl` | 5.838% | -1.254% | -4.984% | -1.743% | 15.29% |
| 2 | `CCN1CC2(CC1=O)CN(C(=O)c1ccoc1)CCN(C(=O)N(C)C)C2` (configuration not stated) | 1.85% | 1.036% | 28.29% | 2.853% | 12.9% |
| 3 | `O=C(NCc1ccccn1)NC1CCOc2ccccc21` (configuration not stated) | 14.84% | 9.478% | 24.88% | -3.207% | 0% |
| 4 | `Cc1nc2ccc(C(=O)N3C[C@@H](O)[C@H](N4CCCC4)C3)cc2[nH]1` | 0.4866% | -19.61% | -2.508% & 9.671% | 0.1739% | -3.158% |
| 5 | `CCCc1nnc(N2C[C@@H](C)[C@@](C)(O)C2)s1` | 2.043% | 1.707% | -7.917% | 6.057% | 2.597% |
| 6 | `c1cnc(N2CCO[C@H]3[C@H](OCCN4CCOCC4)CC[C@@H]32)nc1` | 0.6342% | - | - | -1.198% | 15.79% |
| 7 | `CCOCCN(C)C(=O)Nc1cccc2c1CCN(CC)C2` | -3.535% | -9.722% | -23.61% | -2.311% | 15.79% |
| 8 | `O=C(CNc1cc2c(cc1Cl)OCCCO2)NCc1ccc(F)cc1` | -12.03% | -25.33% | 25.09% | 0.6463% | 24.24% |
| 9 | `OC(COCc1ccccc1Cl)CN1CC(n2cccn2)C1` (configuration not stated) | 0% | -0.8469% | 4.811% | -3.145% | 31.2% |
| 10 | `CN(C)c1ccc(C(=O)N2CCCN(C3CCCCC3)CC2)cn1` | 0.3367% | 0.5483% | -10.53% | 3.583% | 17.2% |
| 11 | `CN(C)C(=O)N1Cc2nnn(CC3CC3)c2C(COCC2CC2)C1` (configuration not stated) | 1.951% | 14.51% | 29.23% | - | 1.887% |
| 12 | `Cc1ccc(C(=O)N2CCC3(CC2)CCN(Cc2ccccn2)C3=O)o1.O=C(O)C(F)(F)F` | - | 3.623% | 20.69% | - | - |
| 13 | `CCOCC(=O)N(C)Cc1nc(C(F)(F)F)cs1` | 5.724% | -13.97% | -18.28% | 5.161% | 3.191% |
| 14 | `Cn1ccnc1CN1CCN(c2ccc(C#N)cn2)CC1` | 8.769% | 9.693% | 30.74% | -2.235% | 15.38% |
| 15 | `CCN1CC2(CCC1=O)CCN(Cc1cccc(OC(F)F)c1)CC2` | 15.05% | 13.55% | 14.62% | 3.35% | 13.33% |
| 16 | `CCc1nc(CN2CCOC(Cn3nc(C)cc3C)C2)no1` (configuration not stated) | -9.115% | -2.104% | -15.81% | 9.824% | -1.709% |
| 17 | `Cc1ccc(-c2nnc(CNCCn3cc(C)cn3)o2)cc1` | 3.689% | 14.57% | 22.47% | 2.421% | 12.5% |
| 18 | `O=C(NCCn1ccnc1)c1cc(F)cc(Br)c1` | - | 6.769% | 20.65% | 0.516% | 20% |
| 19 | `CC(C)(C)OC(=O)NCC1CCCCN1Cc1cccc(C(N)=O)c1` (configuration not stated) | -15.02% | -2.841% | 1.758% | 1.847% | 9.836% |
| 20 | `Cn1cc(CN2CCC3(CCCCN3S(C)(=O)=O)CC2)cn1` | -4.26% | -10.53% | 34.66% | 0.382% | 10.09% |
| 21 | `Nc1nccnc1C(=O)NC1CCN(Cc2ccccc2)C1` (configuration not stated) | 4.204% | -3.787% | 12.27% | -5.215% | 7.254% |
| 22 | `O=C(Cc1ccc(Cl)cc1)N[C@@H]1CCC[C@@H](O)[C@@H]1O` | -4.116% | -9.679% | 4.995% | -8.812% | 5.594% |
| 23 | `O=C(NS(=O)(=O)c1ccc2c(c1)CCC2)C1COCCO1` (configuration not stated) | - | 0.4409% | -6.594% | 11.46% | 0% |
| 24 | `CCOc1ccc(CN(CC)C(=O)c2ccc(C)[nH]c2=O)cc1OC` | 4.436% | -25.61% | 21.7% | -6.968% | 19.64% |
| 25 | `COc1ccc(C(=O)N2CCCC(n3nc(C)nc3C)C2)c(OC)c1` (configuration not stated) | 3.15% | -9.655% | -34.61% | 14.33% | 15.25% |
| 26 | `CN1CCC(Oc2ccc(-n3ccnc3-c3ccncc3)cc2)CC1` | 9.877% | -8.289% | 13.86% | -10.18% | 13.99% |
| 27 | `O=C(O)C(F)(F)F.O=C(O)C(F)(F)F.[H][C@@]12CCN(C(=O)c3cnn(C)c3)[C@@]1([H])CCN2Cc1cccc(C)n1` | - | 7.26% | 7.022% | - | - |
| 28 | `CNS(=O)(=O)c1ccc(CN2CCN(Cc3ncccc3C)CC2)cc1` | 4.516% | -2.14% | 22.52% | -5.393% | 17.11% |
| 29 | `CCc1cnc(C)nc1NC(CC)c1ncnn1CC` (configuration not stated) | 11% | 0.5514% | -120.8% | 0.7452% | 16.44% |
| 30 | `Cc1nnc2n1CCN(CCOc1cccc(C#N)c1)C2` | 6.489% | -32.08% | 30.24% | 0.2556% | 11.3% |
| 31 | `Cn1cnnc1CN1CCC2(CCCN(C3CCCC3)C2=O)C1` (configuration not stated) | 8.239% | 3% | 27.56% | 3.475% | 11.7% |
| 32 | `COc1ccc(C(=O)N2C[C@@H](NC(=O)N(C)C)[C@H](C(C)C)C2)c(OC)n1` | 0.6472% | 2.801% | 13.87% | 2.422% | 15.29% |
| 33 | `CC(C(=O)O)N1CCc2onc(-c3ccc(F)c(F)c3)c2C1` (configuration not stated) | -0.609% | -0.9831% | -1.609% | 3.436% | 16.13% |
| 34 | `CCn1nnc2c1C(COC)CN(Cc1ccco1)C2` (configuration not stated) | -2.683% | 20.36% | -26.8% | - | 52.83% |
| 35 | `CCn1nc(C)c(CCNC(=O)C2CCCN(C(=O)COC)C2)c1C` (configuration not stated) | 1.015% | 13.35% | -4.886% | 1.097% | 8.235% |
| 36 | `O=C(O)C(F)(F)F.[H][C@@]12CCN(Cc3ccco3)[C@]1([H])CC[C@H](COCC1CC1)O2` | - | -12.27% | 33.49% | - | - |
| 37 | `Cc1nccn1-c1ccc(C(C)NCc2cccn2C)cc1` (configuration not stated) | -1.899% | 2.245% | 23.25% | -1.48% | 19.48% |
| 38 | `CCn1c(C2CCN(C(=O)c3cc(C4CC4)on3)CC2)nn(C)c1=O` | 1.942% | -12.35% | 5.38% | 2.304% | 16.67% |
| 39 | `CCC[C@H]1CN(S(C)(=O)=O)C[C@@H]1NC(=O)Cc1ccc(OC)cc1` | -1.603% | -26.11% | 31.08% | -1.652% | 6.452% |
| 40 | `CSCC(C)C(=O)NCc1c(C)nc2cc(=O)[nH]n2c1C` (configuration not stated) | - | -0.3236% | -0.2574% | -1.917% | -15.49% |
| 41 | `O=C1N(CC2CC2)C2(CCSCC2)NC12CCCC2` | -0.4831% | -2.711% | 9.162% | -1.636% | 15.15% |
| 42 | `Cc1nc(-c2ccc(C(=O)O)cc2)cc(C2CCN(C(C)C)CC2)n1` | 2.53% | -34.47% | -11.86% & 6.026% | - | 14.29% |
| 43 | `CNC(=O)C(C)NC(=O)c1ccc(Oc2cccnc2)cc1` (configuration not stated) | 9.091% | -10.6% | 8.461% | -3.271% | 9.333% |
| 44 | `CCn1ncc(-c2nc3c[nH]n(CC)c-3n2)c1C` | 0% | 12.89% | -6.898% | -4.252% | 6.557% |
| 45 | `CCOCCNC(=O)[C@@H]1CCCN1c1nccc(Nc2ccccc2)n1` | 0.4854% | 30.3% | 25.9% | - | 7.921% |
| 46 | `CCC(=O)N1CCC2(CCN(Cc3cccc(F)c3)CC2)CC1.O=C(O)C(F)(F)F` | - | -0.7389% | 2.147% | - | - |
| 47 | `O=C(C1=CCCC1)N1CCO[C@H]2[C@@H](Oc3ccccn3)CC[C@@H]21` | -1.295% | - | - | -0.3524% | -3.65% |
| 48 | `COc1ccc(N(c2ccccc2)c2ccc(C(=O)O)s2)cc1` | -1.595% | -8.148% | 6.692% | - | 14.43% |
| 49 | `Cc1ccccc1N1CCCN(C(=O)CN2C(=O)OC[C@@H]2C(C)C)CC1` | 0.6211% | -26.19% | -29.32% | -3.907% | -0.8333% |
| 50 | `O[C@@H]1C[C@@](CNCc2cccc(Cl)c2)(COc2cnccn2)C[C@@H]1O` | -7.726% | - | - | 3.566% | 20.27% |
| 51 | `O[C@H]1CN(Cc2c[nH]nc2-c2ccccc2)CC[C@@]12CCCO2` | -1.166% | 0.5168% | 8.37% | 5.855% | 0% |
| 52 | `Fc1cccc(OC2CCN(Cc3ncc[nH]3)CC2)c1` | -1.607% | 7.63% | 32.97% | 14.9% | 2.069% |
| 53 | `O=C(CCc1nc(-c2ccccc2)no1)N[C@H]1COC[C@@H]1N1CCCC1` | -2.408% | 9.716% | 22.2% | -0.5376% | 24.05% |
| 54 | `CCN(CCCNc1ncnc2cc(F)c(F)cc12)S(C)(=O)=O` | 11.35% | 6.795% | 27.27% | -0.9723% | 17.24% |
| 55 | `NC(=O)C1Cn2ccnc2C2(CCN(C(=O)NC3CCCC3)CC2)O1.O=C(O)C(F)(F)F` (configuration not stated) | - | -26.31% | 31.59% | - | - |
| 56 | `O=C(Nc1cccn(Cc2ccc(F)cc2)c1=O)c1cnc[nH]1` | 4.439% | 4.906% | -9.036% | -1.117% | 27.43% |
| 57 | `O=C(O)C(F)(F)F.[H][C@@]12CCN(Cc3ccccn3)C[C@@]1([H])O[C@H](C(=O)N1CCCO1)C2` | - | -7.111% | 1.27% & 4.284% | - | - |
| 58 | `CC/N=c1\nc(NCC)nc2n1C(O)(Nc1ccc(C)cc1C)CS2` (configuration not stated) | 2.663% | -12.61% | 10.86% | 1.708% | 19.57% |
| 59 | `CC(C)COc1ccccc1C(N)CC(C)C` (configuration not stated) | 0.9901% | 0.7704% | 23.51% | -1.037% | 10% |

3 of the entries, repeated:

| structure | CoaBC | Toxoplasma | Leishmania in macrophages | MtTrpRS | LiHisRS |
|---|---|---|---|---|---|
| `CC/N=c1\nc(NCC)nc2n1C(O)(Nc1ccc(C)cc1C)CS2` (configuration not stated) | 2.663% | -12.61% | 10.86% | 1.708% | 19.57% |
| `CCN1CC2(CCC1=O)CCN(Cc1cccc(OC(F)F)c1)CC2` | 15.05% | 13.55% | 14.62% | 3.35% | 13.33% |
| `CCOCCNC(=O)[C@@H]1CCCN1c1nccc(Nc2ccccc2)n1` | 0.4854% | 30.3% | 25.9% | - | 7.921% |

From ChEMBL document CHEMBL3988442, “University of Dundee, Small-Polar-MMV Screening Library” (2021).